Assay results as given in patent US20240368285A1.
Residue numbers refer to the chain shown, from its start. Results are given in words; binding and its absence hold for the method and conditions named. Some results given as binding are weak or reduced against the parent protein; the word gives no strength.

Experiments:
[1] = target: T1, MICA on human tumor cells (A-375, A549, HCT-15, MDA-MB-231) (human) (UniProt Q29983); assay: flow cytometry on A-375 and HCT-15 cells
T1 sequence (looked up): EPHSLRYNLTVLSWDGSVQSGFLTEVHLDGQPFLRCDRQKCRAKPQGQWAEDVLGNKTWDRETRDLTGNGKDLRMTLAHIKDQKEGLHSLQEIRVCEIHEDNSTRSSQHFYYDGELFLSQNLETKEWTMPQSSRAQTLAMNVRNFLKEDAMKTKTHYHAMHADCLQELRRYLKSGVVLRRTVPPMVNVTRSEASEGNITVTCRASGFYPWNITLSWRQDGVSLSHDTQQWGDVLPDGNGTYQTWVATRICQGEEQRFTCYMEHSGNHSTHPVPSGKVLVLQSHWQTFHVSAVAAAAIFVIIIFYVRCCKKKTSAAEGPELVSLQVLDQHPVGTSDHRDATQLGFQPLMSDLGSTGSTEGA

[2] = target: T2, MICA protein (SPR analyte) (human) (UniProt Q29983); assay: SPR (Biacore 8K), antibody captured on a protein A chip, MICA as analyte
T2 sequence: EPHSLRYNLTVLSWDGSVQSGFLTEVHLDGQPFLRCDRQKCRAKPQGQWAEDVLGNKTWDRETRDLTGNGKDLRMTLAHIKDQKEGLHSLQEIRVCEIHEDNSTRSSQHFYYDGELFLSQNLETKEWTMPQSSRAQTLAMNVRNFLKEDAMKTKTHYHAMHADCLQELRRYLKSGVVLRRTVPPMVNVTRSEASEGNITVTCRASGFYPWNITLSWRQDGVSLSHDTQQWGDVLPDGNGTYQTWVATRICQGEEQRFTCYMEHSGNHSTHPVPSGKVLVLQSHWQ

[3] = target: T1, MICA on human tumor cells (A-375, A549, HCT-15, MDA-MB-231) (human); assay: flow cytometry on A-375 cells, Alexa-647 goat anti-human secondary, average fluorescence intensity
[4] = target: T1, MICA on human tumor cells (A-375, A549, HCT-15, MDA-MB-231) (human); assay: flow cytometry on HCT-15 cells, Alexa-647 goat anti-human secondary, average fluorescence intensity
[5] = target: T1, MICA on human tumor cells (A-375, A549, HCT-15, MDA-MB-231) (human); assay: flow cytometry on A-375, A-549, HCT-15 and MDA-MB-231 cells
[6] = target: T1, MICA on human tumor cells (A-375, A549, HCT-15, MDA-MB-231) (human); assay: flow cytometry competition on HCT-15 cells; competitor Biotin-h5A1002
[7] = target: T1, MICA on human tumor cells (A-375, A549, HCT-15, MDA-MB-231) (human); assay: flow cytometry on A-375 cells, Alexa-647 goat anti-human secondary, % binding ratio
[8] = target: T1, MICA on human tumor cells (A-375, A549, HCT-15, MDA-MB-231) (human); assay: flow cytometry on A-549 cells, Alexa-647 goat anti-human secondary, % binding ratio
[9] = target: T1, MICA on human tumor cells (A-375, A549, HCT-15, MDA-MB-231) (human); assay: flow cytometry on HCT-15 cells, Alexa-647 goat anti-human secondary, % binding ratio
[10] = target: T1, MICA on human tumor cells (A-375, A549, HCT-15, MDA-MB-231) (human); assay: flow cytometry on MDA-MB-231 cells, Alexa-647 goat anti-human secondary, % binding ratio
[11] = target: T1, MICA on human tumor cells (A-375, A549, HCT-15, MDA-MB-231) (human); assay: flow cytometry on A-375 cells, Alexa-647 goat anti-human secondary, mean fluorescence intensity
[12] = target: T1, MICA on human tumor cells (A-375, A549, HCT-15, MDA-MB-231) (human); assay: flow cytometry on A-549 cells, Alexa-647 goat anti-human secondary, mean fluorescence intensity
[13] = target: T1, MICA on human tumor cells (A-375, A549, HCT-15, MDA-MB-231) (human); assay: flow cytometry on HCT-15 cells, Alexa-647 goat anti-human secondary, mean fluorescence intensity
[14] = target: T1, MICA on human tumor cells (A-375, A549, HCT-15, MDA-MB-231) (human); assay: flow cytometry on MDA-MB-231 cells, Alexa-647 goat anti-human secondary, mean fluorescence intensity
[15] = target: T1, MICA on human tumor cells (A-375, A549, HCT-15, MDA-MB-231) (human); assay: flow cytometry competition on HCT-15 cells; competitor: Biotin-h5A1002, detected with Alexa-647 streptavidin; % binding ratio of Biotin-h5A1002

Measured: binding

B1: maternal humanized antibody h5A1 (antibody, human IgG1, kappa, V domains shown)
VH: QVQLQESGPGLVKPSETLSLTCTVSGFSLTTYGVHWIRQPPGKGLEWIGMIWTDGTTDYNAAFISRVTISVDTSKNQFSLKLSSVTAADTAVYYCARKGHGYYYAMDYWGQGTLVTVSS
VL: EIVLTQSPGTLSLSPGERATLSCTASSSVSSSYLHWYQQKPGQAPRLLIYSTSNLASGIPDRFSGSGSGTDFTLTISRLEPEDFAVYYCHQYHRSPFTFGQGTKLEIKR
binds: [1] | [2] | [3] | [4]

B2: antibody CLN-619 (Cullinan) (antibody, human IgG1, kappa, V domains shown)
VH: QVQLVESGGGLVKPGGSLRLSCAASGFTFSNYAMSWIRQAPGKGLEWVSYISPGGDYIYYADSVKGRFTISRDNAKNSLYLQMNSLRAEDTAVYYCTTDRRHYGSYAMDYWGQGTLVTVSS
VL: DIVMTQSPLSLPVTPGEPASISCRSSKSLLHSNLNTYLYWFLQKPGQSPQILIYRMSNLASGVPDRFSGSGSGTAFTLKISRVEAEDVGVYYCMQHLEYPFTFGPGTKLEIKR
binds: [5] | [6] | [7] | [8] | [9] | [10] | [11] | [12] | [13] | [14] | [15]

B3: affinity maturation antibody h5A1002 (antibody, V domains shown)
VH: B1 VH with V34G, T56W
VL: B1 VL with A56I
binds: [1] | [5] | [2] | [7] | [8] | [9] | [10] | [11] | [12] | [3] | [13] | [4] | [14] | [15]

B4: antibody 1D5V11 (Genentech) (antibody, human IgG1, kappa, V domains shown)
VH: EIQLVQSGAEVKKPGASVKVSCKASGYAFTSQNIYWVRQAPGQGLEWIGYIEPYNVVPMYNPKFKGRATLTVDKSTSTAYLELSSLRSEDTAVYYCARSGSSNFDYWGQGTLVTVSS
VL: DIQLTQSPSSLSASVGDRVTITCSASSSISSHYLHWYQQKPGKSPKLLIYRTSNLASGVPSRFSGSGSGTDYTLTISSLQPEDFATYYCQQGSSLPLTFGQGTKVEIKR
binds: [6] | [7] | [8] | [9] | [10] | [11] | [12] | [13] | [14] | [15]
